Data: the supplement of paper PMC10849652
The other results are listed elsewhere or left out.

The chains behind the UniProt entries cited, without tags or fusion partners. Where a name states a change or a piece, a line headed by the entry shows the natural chain unless it says otherwise.
UniProt P13489: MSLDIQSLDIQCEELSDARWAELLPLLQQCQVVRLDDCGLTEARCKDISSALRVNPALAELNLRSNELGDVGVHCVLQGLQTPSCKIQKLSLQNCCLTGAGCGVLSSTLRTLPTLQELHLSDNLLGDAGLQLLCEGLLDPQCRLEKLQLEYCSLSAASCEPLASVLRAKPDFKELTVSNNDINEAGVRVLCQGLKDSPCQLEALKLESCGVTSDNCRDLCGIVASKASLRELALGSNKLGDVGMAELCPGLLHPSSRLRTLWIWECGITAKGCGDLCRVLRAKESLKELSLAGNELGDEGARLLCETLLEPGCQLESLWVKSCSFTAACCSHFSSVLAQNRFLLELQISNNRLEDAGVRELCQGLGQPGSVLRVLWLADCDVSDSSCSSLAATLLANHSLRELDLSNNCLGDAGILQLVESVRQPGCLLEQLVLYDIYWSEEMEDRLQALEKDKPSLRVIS
UniProt P04843: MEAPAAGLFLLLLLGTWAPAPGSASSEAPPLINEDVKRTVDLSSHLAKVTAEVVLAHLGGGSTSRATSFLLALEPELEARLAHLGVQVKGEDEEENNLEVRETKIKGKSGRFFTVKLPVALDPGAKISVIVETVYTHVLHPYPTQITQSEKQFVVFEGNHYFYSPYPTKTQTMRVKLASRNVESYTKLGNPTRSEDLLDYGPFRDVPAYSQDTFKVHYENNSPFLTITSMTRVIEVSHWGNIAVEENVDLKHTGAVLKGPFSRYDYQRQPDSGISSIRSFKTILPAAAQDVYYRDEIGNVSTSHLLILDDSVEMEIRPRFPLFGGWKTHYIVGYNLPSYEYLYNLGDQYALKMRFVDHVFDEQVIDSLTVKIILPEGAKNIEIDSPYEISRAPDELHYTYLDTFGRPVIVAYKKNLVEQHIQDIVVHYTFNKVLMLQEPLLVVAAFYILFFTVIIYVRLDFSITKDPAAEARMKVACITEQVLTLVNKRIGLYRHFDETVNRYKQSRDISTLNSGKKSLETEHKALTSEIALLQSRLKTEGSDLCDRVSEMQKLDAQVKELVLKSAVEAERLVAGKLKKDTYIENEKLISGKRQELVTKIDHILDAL
UniProt P78346: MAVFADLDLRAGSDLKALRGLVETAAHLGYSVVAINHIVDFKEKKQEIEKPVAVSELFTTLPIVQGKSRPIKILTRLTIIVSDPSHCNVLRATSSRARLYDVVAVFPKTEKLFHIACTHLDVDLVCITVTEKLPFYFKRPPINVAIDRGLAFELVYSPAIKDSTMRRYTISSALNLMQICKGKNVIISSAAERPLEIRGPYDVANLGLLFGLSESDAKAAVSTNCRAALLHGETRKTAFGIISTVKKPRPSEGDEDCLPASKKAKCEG
UniProt P10155: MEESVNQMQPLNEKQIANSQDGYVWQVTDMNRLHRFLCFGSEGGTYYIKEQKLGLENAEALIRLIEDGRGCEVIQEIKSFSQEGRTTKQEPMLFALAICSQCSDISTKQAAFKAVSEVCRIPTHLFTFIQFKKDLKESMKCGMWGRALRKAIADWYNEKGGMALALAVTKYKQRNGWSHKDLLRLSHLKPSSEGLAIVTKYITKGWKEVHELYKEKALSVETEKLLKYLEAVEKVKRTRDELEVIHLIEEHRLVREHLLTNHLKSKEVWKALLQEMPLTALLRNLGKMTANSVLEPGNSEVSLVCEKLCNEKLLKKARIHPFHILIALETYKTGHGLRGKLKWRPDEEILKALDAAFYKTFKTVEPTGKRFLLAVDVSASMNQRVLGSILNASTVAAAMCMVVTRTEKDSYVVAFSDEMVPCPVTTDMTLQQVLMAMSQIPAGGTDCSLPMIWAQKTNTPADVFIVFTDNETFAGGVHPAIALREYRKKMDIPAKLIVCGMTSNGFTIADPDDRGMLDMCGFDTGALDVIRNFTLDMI
UniProt Q7LG56, whole entry, looked up: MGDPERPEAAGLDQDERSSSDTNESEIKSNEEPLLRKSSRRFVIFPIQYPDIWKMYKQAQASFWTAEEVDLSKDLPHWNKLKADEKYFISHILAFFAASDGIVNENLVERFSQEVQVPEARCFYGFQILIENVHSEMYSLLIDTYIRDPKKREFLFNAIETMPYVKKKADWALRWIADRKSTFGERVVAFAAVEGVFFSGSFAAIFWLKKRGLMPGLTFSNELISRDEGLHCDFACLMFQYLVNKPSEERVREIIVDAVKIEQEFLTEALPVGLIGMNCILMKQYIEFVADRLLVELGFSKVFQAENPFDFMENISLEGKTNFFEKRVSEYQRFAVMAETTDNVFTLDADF
UniProt O75695: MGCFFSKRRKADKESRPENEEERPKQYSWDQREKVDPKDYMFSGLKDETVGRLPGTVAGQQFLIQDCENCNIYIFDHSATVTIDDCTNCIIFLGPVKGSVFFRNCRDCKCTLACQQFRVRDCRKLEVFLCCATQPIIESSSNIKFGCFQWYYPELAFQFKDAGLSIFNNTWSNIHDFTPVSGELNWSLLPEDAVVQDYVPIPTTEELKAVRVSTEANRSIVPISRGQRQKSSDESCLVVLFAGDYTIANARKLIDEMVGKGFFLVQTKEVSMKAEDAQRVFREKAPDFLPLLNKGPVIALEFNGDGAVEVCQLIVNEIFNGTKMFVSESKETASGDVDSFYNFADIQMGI
UniProt O75818: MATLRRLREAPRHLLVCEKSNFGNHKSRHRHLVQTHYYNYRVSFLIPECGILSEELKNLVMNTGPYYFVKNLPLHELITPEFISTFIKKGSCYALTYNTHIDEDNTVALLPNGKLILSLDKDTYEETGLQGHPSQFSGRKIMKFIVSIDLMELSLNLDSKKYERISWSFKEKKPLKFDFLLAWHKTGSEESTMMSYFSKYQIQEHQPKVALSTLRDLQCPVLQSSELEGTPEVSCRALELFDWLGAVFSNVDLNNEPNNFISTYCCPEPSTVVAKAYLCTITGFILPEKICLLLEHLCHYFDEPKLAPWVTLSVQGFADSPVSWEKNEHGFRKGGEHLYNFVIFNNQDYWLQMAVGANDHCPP
UniProt Q96BH1: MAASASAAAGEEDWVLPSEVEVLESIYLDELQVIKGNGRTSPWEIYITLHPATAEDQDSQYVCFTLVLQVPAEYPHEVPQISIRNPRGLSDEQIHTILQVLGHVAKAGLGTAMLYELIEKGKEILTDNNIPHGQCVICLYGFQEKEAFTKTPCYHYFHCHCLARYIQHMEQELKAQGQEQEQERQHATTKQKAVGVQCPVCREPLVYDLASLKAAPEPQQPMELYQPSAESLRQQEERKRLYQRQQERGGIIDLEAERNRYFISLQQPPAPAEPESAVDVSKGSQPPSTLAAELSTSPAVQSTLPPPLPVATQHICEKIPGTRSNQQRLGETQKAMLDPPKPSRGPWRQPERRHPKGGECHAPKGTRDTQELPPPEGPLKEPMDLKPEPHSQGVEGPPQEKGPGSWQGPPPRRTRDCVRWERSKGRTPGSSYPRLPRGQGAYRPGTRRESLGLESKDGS
UniProt Q86WX3: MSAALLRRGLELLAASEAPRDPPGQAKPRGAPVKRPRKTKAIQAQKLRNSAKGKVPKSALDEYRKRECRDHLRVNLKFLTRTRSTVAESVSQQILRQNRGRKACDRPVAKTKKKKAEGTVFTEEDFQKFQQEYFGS
UniProt Q9P2E9: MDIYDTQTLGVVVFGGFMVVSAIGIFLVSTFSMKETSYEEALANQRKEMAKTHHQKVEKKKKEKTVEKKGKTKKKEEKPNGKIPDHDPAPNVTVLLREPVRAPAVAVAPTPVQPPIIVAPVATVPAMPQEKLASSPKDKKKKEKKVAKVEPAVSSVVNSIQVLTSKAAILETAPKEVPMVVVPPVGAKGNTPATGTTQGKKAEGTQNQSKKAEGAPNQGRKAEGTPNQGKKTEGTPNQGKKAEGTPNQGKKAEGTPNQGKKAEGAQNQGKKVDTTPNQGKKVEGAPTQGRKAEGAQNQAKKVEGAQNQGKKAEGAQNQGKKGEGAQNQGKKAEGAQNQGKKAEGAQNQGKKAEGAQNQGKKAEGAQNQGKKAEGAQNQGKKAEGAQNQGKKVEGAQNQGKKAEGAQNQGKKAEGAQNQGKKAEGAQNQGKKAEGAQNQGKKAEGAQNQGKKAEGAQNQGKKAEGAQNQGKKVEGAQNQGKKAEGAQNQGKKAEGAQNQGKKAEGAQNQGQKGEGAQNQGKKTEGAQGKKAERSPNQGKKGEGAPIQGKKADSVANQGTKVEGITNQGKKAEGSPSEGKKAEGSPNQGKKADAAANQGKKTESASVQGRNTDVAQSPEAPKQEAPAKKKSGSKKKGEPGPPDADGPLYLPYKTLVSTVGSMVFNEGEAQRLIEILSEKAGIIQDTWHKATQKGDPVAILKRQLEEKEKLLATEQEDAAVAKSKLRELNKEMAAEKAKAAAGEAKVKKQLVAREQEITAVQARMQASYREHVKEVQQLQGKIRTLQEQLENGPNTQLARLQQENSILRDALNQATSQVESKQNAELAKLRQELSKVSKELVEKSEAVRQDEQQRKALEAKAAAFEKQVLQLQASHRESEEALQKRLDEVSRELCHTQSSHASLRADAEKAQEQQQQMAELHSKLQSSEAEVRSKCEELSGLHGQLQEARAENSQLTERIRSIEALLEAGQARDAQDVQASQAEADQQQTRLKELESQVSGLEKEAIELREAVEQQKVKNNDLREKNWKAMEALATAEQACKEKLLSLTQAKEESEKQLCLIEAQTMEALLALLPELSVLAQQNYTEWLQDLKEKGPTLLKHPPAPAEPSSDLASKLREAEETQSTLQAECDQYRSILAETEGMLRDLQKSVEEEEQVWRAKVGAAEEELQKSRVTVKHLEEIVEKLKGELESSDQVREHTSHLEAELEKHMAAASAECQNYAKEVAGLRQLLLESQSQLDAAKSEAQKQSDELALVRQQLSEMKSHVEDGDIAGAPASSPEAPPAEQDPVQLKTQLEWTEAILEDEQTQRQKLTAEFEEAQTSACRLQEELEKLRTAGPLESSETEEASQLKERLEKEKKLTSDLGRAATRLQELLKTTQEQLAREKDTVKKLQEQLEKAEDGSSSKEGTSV

compound: Cc1cc(SCc2sc(-c3ccc(C(F)(F)F)cc3)nc2C)ccc1OCC(=O)O; assay: log2 fold change, soluble protein after heating vs DMSO (PISA); higher = thermal stabilisation; K562 cells, 10 uM, 30 min; active = over 0.2 and 3.5 SD of the protein, either way, in both replicates (recomputed)
In short: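 Values are thermal stability changes relative to control samples and are taken from duplicates. They are stated as log2 fold changes. Before quantification by TMTpro 16plex LC-MS/MS with equalised channel sums, K562 cells at 2×10^6 cells/mL were treated with 10 μM compound for 30 min, heated in aliquots for 3 min across 48°C-58°C, pooled, extracted in PBS with 0.5% NP-40 at 4°C, and centrifuged at 21,000xg for 90 min to give the soluble supernatant.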

log2 fold change, inactive:
RPL9 (UniProt P32969) 0.059, RNH1 (UniProt P13489) 0.012, RPL24 (UniProt P83731) 0.037, RPS17 (UniProt P08708) 0.024, RPL17 isoform 3 (UniProt P18621) 0.048, RPN1 (UniProt P04843) 0.021, RPP30 isoform 2 (UniProt P78346) -0.128, RPL15 (UniProt P61313) 0.055, RO60 (UniProt P10155) -0.052, RRM2B isoform 6 (UniProt Q7LG56) 0.009, RP2 (UniProt O75695) -0.086, RPP40 (UniProt O75818) -0.028, RPL36 (UniProt Q9Y3U8) 0.059, RPL11 (UniProt P62913) -0.001, RPL13 (UniProt P26373) 0.017, RNF25 (UniProt Q96BH1) 0.02, RPL8 (UniProt P62917) 0.052, RPS27 (UniProt P42677) 0.071, RPS19BP1 (UniProt Q86WX3) 0, RPL35 (UniProt P42766) 0.049, RPS10 (UniProt P46783) -0.006, RRBP1 (UniProt Q9P2E9) -0.002, RPL22 (UniProt P35268) -0.008
